In PubChem BioAssay AID1671190 (National Center for Advancing Translational Sciences (NCATS), 2021):
The whole screen tested about 580,000 compounds, of which about 6,100 (1.1%) were called active. The shares of active, inactive and inconclusive entries below differ from those in the screen. The call rests on the fitted dose curve; in most records, active means well fitted inhibition curve with a large enough effect; inconclusive means small, poorly fitted or top-dose-only effect, or another doubt; inactive means no such curve, though single readings can be large or run the other way. Potencies of inconclusive entries are doubtful fits and often do not repeat.
On the % scale 0 is the no-effect control and ±100 the full control effect; potency means the concentration at half of the fitted maximal effect.

Amino acid sequences for entries named in this document (tags omitted). A change or cut given only in a name is not applied to a line headed by its entry.
UniProt P18054: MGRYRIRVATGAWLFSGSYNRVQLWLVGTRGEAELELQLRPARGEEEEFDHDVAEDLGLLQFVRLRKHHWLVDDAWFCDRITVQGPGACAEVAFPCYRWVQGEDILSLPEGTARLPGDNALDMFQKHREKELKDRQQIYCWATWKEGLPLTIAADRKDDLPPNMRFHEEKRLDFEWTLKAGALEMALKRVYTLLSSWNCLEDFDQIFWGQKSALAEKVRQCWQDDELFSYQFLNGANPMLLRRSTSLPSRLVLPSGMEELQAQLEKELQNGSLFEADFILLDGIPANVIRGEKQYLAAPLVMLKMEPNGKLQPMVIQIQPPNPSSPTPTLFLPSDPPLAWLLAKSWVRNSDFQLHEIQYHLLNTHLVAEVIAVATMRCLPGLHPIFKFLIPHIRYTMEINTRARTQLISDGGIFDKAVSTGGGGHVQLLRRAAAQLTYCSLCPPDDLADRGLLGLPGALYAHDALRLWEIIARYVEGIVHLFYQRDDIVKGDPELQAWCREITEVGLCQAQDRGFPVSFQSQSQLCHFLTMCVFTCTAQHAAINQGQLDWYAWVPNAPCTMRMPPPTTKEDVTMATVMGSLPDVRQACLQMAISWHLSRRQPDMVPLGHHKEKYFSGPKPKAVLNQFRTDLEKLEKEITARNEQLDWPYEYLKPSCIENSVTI

These compounds were tested against Polyunsaturated fatty acid lipoxygenase ALOX12 (Homo sapiens) (UniProt P18054) (assay: Primary qHTS assay for inhibitors of human arachidonate 12S-lipoxygenase (ALOX12): Round 2). Conditions: purified 12hLO, xylenol orange hydroperoxide absorbance; activity change, negative = inhibition: at 108 µM (top of the series) unless noted.
Outline: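 Purified human 12hLO at 150 nM in 25 mM Hepes, 0.01% Triton X-100, pH 7.0, preincubated 15 min at room temperature with compound. Reaction started with 40 uM arachidonic acid, 30 min at room temperature. Hydroperoxide measured by Fe-xylenol orange, 573/405 nm absorbance ratio.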
For `Cc1cccc(OCC(=O)Nc2ccc3c(c2)nc(CCNC(=O)c2ccco2)n3C)c1`, the “activity change, negative = inhibition” value was inactive: -2.7%.
In the case of `CCn1c(Cc2ccccc2)nnc1SCC(=O)Nc1nccs1`, the activity change, negative = inhibition is reported as inconclusive: -30.7% [inhibitor].
For `CNC(=O)c1cc2c(=O)n3cc(C)ccc3nc2n(C(C)C)c1=N`, the “activity change, negative = inhibition” value was inactive: 29.9%.
`Cc1cc(C)cc(NC(=O)c2sc3nc(-c4cc5ccccc5oc4=O)[nH]c(=O)c3c2C)c1` was tested, and the “activity change, negative = inhibition” value was inactive: 5.2%.
In the case of `COCCn1c(SCc2ccc3c(c2)OCO3)nnc1-c1ccc(Cl)cc1`, the “activity change, negative = inhibition” value is reported as inactive: 2.42%.
`C[C@H]1CN([C@@H](C)CO)C(=O)Cc2cc(NC(=O)CCC(F)(F)F)ccc2O[C@H]1CN(C)S(=O)(=O)c1ccc(Cl)cc1` was tested, and the Potency was inconclusive: 79.4 µM [inhibitor, partial curve, poor fit].
In the case of `COc1ccc(NC(=S)Nc2ccc3nsnc3c2)cc1`, the Potency is reported as active: 7.94 µM.
With `Cc1ccc(S(=O)(=O)c2nc(-c3ccco3)oc2N2CCN(C)CC2)cc1` the Potency was inconclusive: 126 µM [inhibitor, single point].
With `COC(=O)c1c(C)sc(-c2c(-c3cccc(Cl)c3)[nH]c3c2c(=O)[nH]c(=O)n3C)c1O` the Potency was inconclusive: 56.2 µM [inhibitor, partial curve, poor fit].
In the case of `CCCNc1cc(=S)nc(N)[nH]1`, the Potency is reported as inconclusive: 35.5 µM [inhibitor, partial curve, poor fit].
`O=C(NCCCn1ccnc1)c1nn2c(C(F)(F)F)cc(-c3ccc(Br)cc3)nc2c1Cl` was tested, and the “activity change, negative = inhibition” value was inactive: 4.18%.
For `C=CCOC(=O)COc1ccc2c3c(c(=O)oc2c1)CCCC3`, the Potency was inconclusive: 44.7 µM [inhibitor, partial curve, poor fit].
With `COCCN1C(=O)N[C@@H](c2cccs2)C(C(C)=O)=C1C` the Potency was inconclusive: 112 µM [inhibitor, single point].
`Cn1c(NC(=O)c2cccs2)c(-c2cccs2)c(=O)c2ccccc21` was tested, and the Potency was inconclusive: 79.4 µM [inhibitor, single point].
For `COc1ccccc1NC(=S)NCc1ccc2c(c1)cc(C)n2C`, the Potency was inconclusive: 44.7 µM [inhibitor, partial curve, poor fit].
With `COc1ccc(-c2nc(SCc3ccccc3)n(S(C)(=O)=O)n2)cc1` the Potency was inconclusive: 44.7 µM [inhibitor, full curve, poor fit].
With `c1ccc(N2CCN(Cc3ccnc4ccccc34)CC2)cc1` the “activity change, negative = inhibition” value was inactive: 0%.
For `COc1ccc(-n2c(SCCC#N)nnc2-c2cc(Cl)ccc2OC)cc1Cl`, the “activity change, negative = inhibition” value was inactive: -21.4%.
For `c1ccc2c(c1)OCC(c1nn3c(Cn4nnc5ccccc54)nnc3s1)O2` (stereo not given), the Potency was inconclusive: 20 µM [inhibitor, full curve, poor fit].
With `COc1ccccc1N1CCN(C(=O)C2CC=CCC2C(=O)O)CC1` (stereo not given) the Potency was inconclusive: 35.5 µM [inhibitor, partial curve, poor fit].
For `Cc1nc2ccccc2n1CCCOc1ccccc1`, the Potency was inconclusive: 12.6 µM [inhibitor, partial curve, poor fit].
`COc1ccc(-c2csc(NC(=O)CC(NC(C)=O)c3ccccc3)n2)cc1OC` (stereo not given) was tested, and the “activity change, negative = inhibition” value was inactive: -1.1%.
With `COc1ccc(/C=C2/C(=O)N(c3ccccc3)N=C2C)cc1OC` the Potency was inconclusive: 35.5 µM [inhibitor, partial curve, poor fit].
`Cc1cnc(CCNS(=O)(=O)c2ccc(C#N)cc2)n1C1CCC1` was tested, and the Potency was inconclusive: 31.6 µM [inhibitor, single point].
In the case of `CCOc1ccc(CN(C)Cc2cc(=O)oc3cc(C)ccc23)cc1`, the Potency is reported as inconclusive: 22.4 µM [inhibitor, partial curve].
For `O=C(NNc1cccc(Cl)n1)c1ccccc1CC[N+](=O)[O-]`, the “activity change, negative = inhibition” value was inactive: 0.262%.
`O=C(O)CCc1ccc(-c2cccs2)n1CCc1ccccc1` was tested, and the Potency was inconclusive: 50.1 µM [inhibitor, partial curve, poor fit].
In the case of `CCc1ccccc1NC(=O)C1CCN(C2=NS(=O)(=O)C(c3ccc(C)c(C)c3)=C2C)CC1`, the Potency is reported as inconclusive: 50.1 µM [inhibitor, partial curve, poor fit].
For `COc1ccc(/C=C(\NC(=O)c2cccs2)C(=O)NCc2ccco2)cc1OC`, the Potency was inconclusive: 112 µM [inhibitor, single point].
`COc1ccc(CNC(=O)COC(=O)c2cc(-c3cccs3)nc3ccccc23)cc1OC` was tested, and the Potency was inconclusive: 126 µM [inhibitor, single point].
In the case of `Cc1ccccc1-c1cc(=O)c2cc(NC(=O)c3ccccc3)ccc2o1`, the “activity change, negative = inhibition” value is reported as inactive: -20.9%.
In the case of `C=CCc1cccc2cc(C(=O)N3CCN(c4ccccn4)CC3)c(=O)oc12`, the “activity change, negative = inhibition” value is reported as inactive: -13.1%.
With `COc1ccc(CC(=O)Nc2nc3ccccc3[nH]2)cc1` the “activity change, negative = inhibition” value was inactive: -11.1%.
For `Cc1cc(N2CCC(C)CC2)nc2ccc(NC(=O)/C=C/c3cccc(Cl)c3)cc12`, the Potency was inconclusive: 56.2 µM [inhibitor, partial curve, poor fit].
`Cc1ccc(S(=O)(=O)N2C[C@]3(O)C[C@@H]4C(=O)N(c5ccccc5)C(=O)[C@@H]4C[C@]3(OC(=O)NCc3ccco3)C2)cc1` was tested, and the “activity change, negative = inhibition” value was inactive: -20.8%.
In the case of `COC(=O)Nc1nc2ccc(C(=O)c3cccs3)cc2[nH]1`, the Potency is reported as inconclusive: 7.94 µM [inhibitor, partial curve, poor fit].
In the case of `c1ccc(CCNCCOc2ccccc2)cc1`, the Potency is reported as inconclusive: 1.26 µM [inhibitor, full curve].
With `CCOc1cc2nc(-c3ccc(OC)c(OC)c3)nc(N3CCC(C(N)=O)CC3)c2cc1OC` the Potency was inconclusive: 112 µM [inhibitor, single point].
`COc1ccc(OCc2nn3c(-c4cccc(OC)c4)nnc3s2)cc1` was tested, and the “activity change, negative = inhibition” value was inactive: 0%.
With `CC(C)c1ccc(Nc2c(-c3ccccc3O)nc3cnccn23)cc1` the Potency was inconclusive: 28.2 µM [inhibitor, partial curve, poor fit].
With `CCOC(=O)C1CCCN(Cc2ccc(OCC)cc2)C1` (stereo not given) the Potency was inconclusive: 0.398 µM [inhibitor, full curve, poor fit].
With `COc1ccc([C@H]2N[C@]3(CCCN(Cc4ccco4)C3=O)[C@H]3C(=O)N(Cc4ccccc4)C(=O)[C@@H]23)cc1` the Potency was inconclusive: 100 µM [inhibitor, single point].
With `Cc1cc(N2CCNC[C@H]2C)ccc1N1CCN(Cc2ccccc2)[C@@H](C)C1` the Potency was inconclusive: 35.5 µM [inhibitor, partial curve].
In the case of `Cc1ccc(NC(=O)N2C[C@@H](Oc3cccnc3)C[C@H]2C(=O)N2CCCC2)cc1C`, the Potency is reported as inconclusive: 39.8 µM [inhibitor, single point].
`CC(C)c1ccc(NC2CCCN(C(=O)CCN3CCOCC3)C2)cc1` (stereo not given) was tested, and the activity change, negative = inhibition was inconclusive: -33.2% [inhibitor].
`CCN(CC)c1ccc(C=Nc2cc(C)cc(C)c2)c(O)c1` was tested, and the activity change, negative = inhibition was inconclusive: -33% [inhibitor].
With `CCc1n[nH]c(=S)n1/N=C/c1ccc2c(c1)OCO2` the Potency was inconclusive: 79.4 µM [inhibitor, partial curve, poor fit].
`O=C(NCC1(c2ccccc2)CCC1)c1cc(=O)[nH]c2ccccc12` was tested, and the “activity change, negative = inhibition” value was inactive: -0.583%.
With `CCOC(=O)Cc1cnc(NC(=O)NC(C(=O)OCC)(c2ccccc2)C(F)(F)F)s1` (stereo not given) the Potency was inconclusive: 50.1 µM [inhibitor, partial curve, poor fit].
In the case of `Cc1cccc2c1NC(=O)/C2=C\C(=O)c1cccs1`, the “activity change, negative = inhibition” value is reported as inactive: -13.3%.
`O=C(CN1C(=O)C(c2ccccc2)=NC12CCCC2)N1CCN(c2ccccc2)CC1` was tested, and the Potency was inconclusive: 35.5 µM [inhibitor, partial curve, poor fit].
For `COc1cccc(C(=O)N2CCC3(CC2)CC(N(C)Cc2ccccc2)CCO3)c1` (stereo not given), the “activity change, negative = inhibition” value was inactive: 7.35%.
With `CC(C)NC(=O)c1cc(-c2ccco2)nc2ccccc12` the Potency was inconclusive: 31.6 µM [inhibitor, partial curve, poor fit].
`CCc1nnc(NS(=O)(=O)c2ccc(N/C=C\C(=O)c3ccc(C)cc3)cc2)s1` was tested, and the Potency was inconclusive: 44.7 µM [inhibitor, partial curve, poor fit].
For `Cc1cc(C)[n+]2[nH]c(N)c(N=Nc3ccccc3)c2n1`, the Potency was inconclusive: 35.5 µM [inhibitor, partial curve, poor fit].
`Cc1ccccc1C(=O)Nc1cc(S(=O)(=O)N2CCCCC2)ccc1N1CCN(C)CC1` was tested, and the “activity change, negative = inhibition” value was inactive: -25.9%.
For `O=S(=O)(O)c1nc2ccccc2n1Cc1ccc(Cl)cc1Cl`, the Potency was inconclusive: 35.5 µM [inhibitor, partial curve, poor fit].
For `FC(F)(F)c1cccc(N2NC3(CCCCC3)NC2=S)c1`, the “activity change, negative = inhibition” value was inactive: -9.45%.
In the case of `N#Cc1cccc(C(=O)C(=O)N2CCC(c3ccccc3)CC2)c1`, the Potency is reported as inconclusive: 100 µM [inhibitor, single point].
With `COC(=O)CC1=C(C(=O)OC)C(c2ccc(OC)cc2)C(C#N)=C(N)O1` (stereo not given) the Potency was inconclusive: 100 µM [inhibitor, partial curve, poor fit].
`CCO[C@@H]1OC(C(=O)NCc2ccccc2)=C[C@H](c2csc3ccccc23)[C@H]1CCCO` was tested, and the Potency was inconclusive: 50.1 µM [inhibitor, partial curve, poor fit].
For `COC(=O)c1c(NC(=O)c2ccccc2C(=O)O)sc2c1CCCC2`, the Potency was inconclusive: 89.1 µM [inhibitor, partial curve, poor fit].
For `Cc1cc(C)c(-n2nnnc2SCC(=O)NCCc2ccccc2)c(C)c1`, the “activity change, negative = inhibition” value was inactive: 5.57%.
For `Cc1ccc(Cl)cc1N1CCN(CCNC(=O)Nc2ccc(Cl)cc2)CC1`, the Potency was inconclusive: 56.2 µM [inhibitor, partial curve, poor fit].
With `CCOc1ccc(/C(O)=C2/C(=O)C(=O)N(c3nc(C)c(C)s3)C2c2ccco2)cc1` (stereo not given) the Potency was inconclusive: 25.1 µM [inhibitor, partial curve, poor fit].
